Assay [1] addresses T1, prolamin-box binding factor 1 (PBF1) ORF fused into the pGBKT7 vector (maize (Zea mays L.)) (UniProt O24463).
T1 sequence: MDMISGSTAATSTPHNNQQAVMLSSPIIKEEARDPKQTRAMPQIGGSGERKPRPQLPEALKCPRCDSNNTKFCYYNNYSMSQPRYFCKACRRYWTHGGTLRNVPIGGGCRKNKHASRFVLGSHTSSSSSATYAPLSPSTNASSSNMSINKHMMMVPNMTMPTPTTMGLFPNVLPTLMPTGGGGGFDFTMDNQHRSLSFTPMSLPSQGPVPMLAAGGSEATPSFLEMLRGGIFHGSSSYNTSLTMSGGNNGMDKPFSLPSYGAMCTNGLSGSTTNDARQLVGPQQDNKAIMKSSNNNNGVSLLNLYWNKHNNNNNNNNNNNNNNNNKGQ
Description: two-hybrid; O2 or PBF1 in pGBKT7, ZmMYB127 in pGADT7, co-transformed into Y2H gold yeast; growth on SD/-Leu-Trp and SD/-Leu-Trp-His-Ade plates, culture dilutions 1 to 1/1000.

Assay [2] has as its target T2, OPAQUE2 (O2) ORF fused into the pGBKT7 vector (maize (Zea mays L.)) (UniProt P12959).
T2 sequence: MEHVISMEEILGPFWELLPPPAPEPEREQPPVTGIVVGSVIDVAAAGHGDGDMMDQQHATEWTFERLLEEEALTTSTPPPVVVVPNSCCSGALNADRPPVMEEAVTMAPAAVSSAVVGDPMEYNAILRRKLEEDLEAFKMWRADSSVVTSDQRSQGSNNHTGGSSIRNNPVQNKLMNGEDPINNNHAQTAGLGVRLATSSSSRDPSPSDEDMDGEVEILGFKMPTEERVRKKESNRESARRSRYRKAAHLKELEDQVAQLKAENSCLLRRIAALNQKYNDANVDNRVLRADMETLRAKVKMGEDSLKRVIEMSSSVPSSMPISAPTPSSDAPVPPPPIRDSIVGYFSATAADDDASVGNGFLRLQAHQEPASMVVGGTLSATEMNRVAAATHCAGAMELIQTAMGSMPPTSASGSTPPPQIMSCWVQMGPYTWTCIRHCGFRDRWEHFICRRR
The description is as above.

Assay [3] has as its target T3, PBF1-cLUC (maize (Zea mays L.)) (UniProt O24463).
T3 sequence: T1 sequence
Kind of assay: split reporter; split luciferase complementation; ZmMYB127-nLUC with O2-cLUC or PBF1-cLUC in N. benthamiana leaves; Luc images after 2 days.

For assay [4], the target named is T4, O2-cLUC (maize (Zea mays L.)) (UniProt P12959).
T4 sequence: T2 sequence
The assay is described as above.

Assay [5] deals with GST-ZmMYB127 (maize (Zea mays L.)). Kind of assay: pull-down; purified GST-ZmMYB127 or GST control immobilised on Glutathione Sepharose beads at 4°C for 2 h; His-PBF1 or His-O2 added for another 2 h; five washes with PBS; immunoblot with anti-GST and anti-His; both purified. In general terms: Immunoblotting shows a protein as a band on a membrane.

We go through four molecules from PMC12906810, “ZmMYB127 Modulates Maize Kernel Texture and Size by Integrating the Synthesis of Starch, Zein Proteins and Auxin”.

No constants are given. Whether binding was seen depends on the method and setting. Binding can be weak; no strength is given. Where a sequence is shown, tags or fusion partners need not be part of it. For part of these data: Binding seen in cells or lysates may run through a third protein.

For the molecule “ZmMYB127 fused into the pGADT7 vector (maize (Zea mays L.))”, the binding result in assay [1] and in assay [2] was “binds” throughout.
With ZmMYB127-nLUC (maize (Zea mays L.)), the binding entry in assay [3] and in assay [4] was “binds” in each case.

B1: His-O2 (protein, UniProt P12959 1-453)
chain: T2 sequence
B1: the binding result in assay [5] is “binds”.

B2: His-PBF1 (protein, UniProt O24463 1-328)
chain: T1 sequence
Take B2: in assay [5], the binding entry was “binds”.
